# Source: publication PMC11651612
# Results are given in words; binding and its absence hold for the method and conditions named. In cells and extracts the contact can be indirect. Here binding means that the protein was enriched with, or labelled near, the bait; the list need not be complete.
# T1: Cdc3-mCherry (C. neoformans) (UniProt J9VUF2)
# T1 sequence: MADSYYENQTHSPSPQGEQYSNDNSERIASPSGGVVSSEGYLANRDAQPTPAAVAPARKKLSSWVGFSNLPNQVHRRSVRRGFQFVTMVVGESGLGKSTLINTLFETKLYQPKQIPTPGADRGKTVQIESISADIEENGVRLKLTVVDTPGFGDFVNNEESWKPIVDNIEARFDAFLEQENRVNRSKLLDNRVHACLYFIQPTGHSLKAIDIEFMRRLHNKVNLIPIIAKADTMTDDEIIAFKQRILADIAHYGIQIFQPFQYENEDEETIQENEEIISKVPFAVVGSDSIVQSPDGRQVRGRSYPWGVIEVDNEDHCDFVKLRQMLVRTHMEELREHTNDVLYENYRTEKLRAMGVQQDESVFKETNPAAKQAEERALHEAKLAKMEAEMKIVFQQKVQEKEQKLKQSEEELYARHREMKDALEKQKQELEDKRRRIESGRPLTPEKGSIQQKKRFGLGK
# Target: T1, Cdc3-mCherry (C. neoformans)
# Assay: affinity purification with mass spectrometry
row,Binder,binding
1,"PH domain-containing protein (CNAG_03727) (protein, UniProt J9VGF7 1-1282) MPLFFQRSRRASEAPPVLHPPDSKAHKRFSIDATSNAHNNPPFSTMNGTKLKNLLGAGPGSGDQSGTQKKERMKKKLTTPSMFFRRNSSSSPESPKPSPGSATVPITPGNEPIMADYQDPVQRISTKPVNAGLFPSAAVSPENSVLSHTVSPETSTPLSQGSVTPNARARPLSQTWQPSYPLVLPDEGYADVLPNGQLPLTTGPDIVSAAGDENAQRRSTDAHVLDSQLITKPQEMVVVPPETHLPTPPLSSRVSPEIGLQNEVETNQRRPSLALITSDEVLTPKALRPVSHEQENIKAPLAAADNQMVSENVVHPPEIHNQDILAIAPSPITHHTASSIPSISATPAMPSTPISSSSSPVRMSRPGLPVRKTTVIHSPPMPQPIRNLPTLTNLASLAGDTSSTTPTATPGWGELAKEGGPKTPGGGIMRSPISMMNGARTPGLGSFTLNLPQGKAKKTPMTEQELRKARRAMPVMLRQPSTVPSNEDDEGGDAGDDDDEEEESEDGAVSDGDSDNDSEAETARNPSTVSSSPVGFSGRLARKTRAGSSSQVGEMAKSAVTEEGDVSGSRALNASTDARRQSDFSRFNGMSNVSGPTIIPKANGKSVWSLSTPCEKDQSTSWAQFNNEGTPVRDVVPPVIVDTGNAQPTAGAAAAIARATLERGQLSYPSTLTTTSRGSSGYFDSQPSSSGPSAMPSPLPRLDKGKGKDLTVAVDSGSGLAAPVAAPRVEGEEERSVLEEESEIEEDVRREELGASSEDTNEVSTEGGTPSVEANDIAASTLPPSSQQVPQRPSLYTQTSISMINLPPKPQDSEDSTANRMVVKPKLETVKSGEQMPFRISLPPQQEPTGPGGILSPAEWAKPPPTPATGLNSFNFLVAGKDKPKELKRRRSAGDLVVPPPKYEPPFPGTFIPKPRDEEGREKLPKYWCSVHIEGMLQRKMEFIGEKDLGTGPDGKKKVEKIQARDRSWKRYYFILHGTALLVYKFDPHRFPLKTDAPVPTIDDEDADEFLHVHPSPERRRRASSSSVIGPGNKRGSVSVDPGRRGSVDTTNSMTWRGSGDSTSPISIPIPGRRTSESNNSLGSGSYRRSSLSIVHNAENGDDVKNAALFNSQRRASTSGTNAAFPSSSYGSTNTPLSSHFQHNALVKQYSLNKTESGLAADYHKRKNVVRVRADGEQFLLQTDSARDMVDWVEAFQAATNVAKDLDERPMPKIITLPRRRRRRNPAQQAATAAASNPVNAVASGTINPREATMVQQALVAADEAERERERMLREDQEAAVT",binds
2,"Exocyst protein (protein, UniProt J9VN33 1-1194) MSSVPRTSSQDDVRSHITASLCAQRAPDGTPEETLIAFLKVYEEDSAGGTKSRYLILAVQRTGRVFIHKAKRNSNLSFSKGKTWYLEDVRVLEVMGPSDFALTMTTRRYHWTTERPKDQTAFLTSIVKVYKEYTHGRLPELINFVPPPIQSQPATQQQVPHTGLNEPPSAFPIPRVGNSDLTLPQPFGRSYRANSSSSVNSSQTYGSHYQPSHSESSRGRPSVDDDRSPPSATGTGAFARFPLSDTGRRPSGGDGRAAISPRAVAPGNGVGMGPPPAQRKMSDDRAEKIGLSALRNVSAASEYDSGTAGDASSRMKKSESDMSVIAETETERSVSAGAGGKATQSSRIPSAPVIREHSPSPPPPPPPPPQSTSNPQASEQKPKPAPPTITTTDLSVPSPGLNTSADFSSSPVSATRSSRRASFHPPPLDTTISRDVLLQSRTGLLPGAAGMTIDESEGDDGVLKNVEEMLEGFDWGMSAGGLGLNGEWRKKGADIIENRLLDELTALDSAIIHAFLESDDRTAQVLAHIDEALMELDDIDLQITGYRMQLNAVSDDISYIESQGKGLQVQTSNQQVLLNELRQLLQIVEVPADDLHTLIKEPPSSEQGVKALERAAASLYKALQAGMDTANAEVAATIARMQEYREQSSKFCKRMSDYLDITFQYQADSTLSDFRKNFKKTMALESHQKMGEKLMIYTGLVLYIKEMDDARYQKLCSDYMSRASQLHQSEMRELLTYMASLHLSSGDAGADADFSSAPGANYAKPSALQKSKTVIGLGLGNQPKQEKRTGNNISRAAELYRQAFTQIINQIVVEEDFINAFLRPVDTESTFADYMELDSYFRRQAARHASRARSAGMIQLLRSMMDLIFGFVEIELKNWVEATVEKGPVAIVGIIAVTERLAKEAEEENTSIFFTQLFDKQLLKQRLIMDMFINKQIKSIEASKTIIKRRKGITFFVKHFPVFVERVEQQMDGNGDLPIRVKVNEAYEKVMTSVYGSLEQLAKMERAETQANEDKGQLNYHVIMIENLHCFIEDVSQIKSMAMAGFLQRAKTRFEENMSMYIRLMLRRTFARFIDFFDGVDRLLQSTPANEISLHHSYSRSALKKILKDHGAKDMRKAVETMSRRVDKHFADDEEPNTSTANTALINMVWNELTQEFAKEILRAQGIVAKSYGDSGLGLEFSAADVEATCKKMK",binds
3,"Vacuolar protein (CNAG_03162) (protein, UniProt J9VQ88 1-283) MSSPPRYTEEPNLRPAPSKAYDTTPADTAATQPLLAAHASTNAQRAAEEGWRDDEDNVSDNYKLGVSVSDCDTEIRMLFIRKVYSILLIQLLATAGVSILLSLPSAKDFTHTNPWIMWIPLIGSFTSLFFVYWKRHHHPANLILLGLFTLFEATMIGLAVSYYESRIVIQALFITLGVFIGLTLFTFQTKYDFSSLAPILFIGIWGLLTTYLIQIFLPFNATVDLGIACFSTLLFSGFVLYDTQQIMKRLSVDEAIAGALTLYLDFLNLFLSILRALNSSNDR",binds
4,"Cytoplasmic protein (CNAG_06689) (protein, UniProt J9VRG3 1-367) MGILEKIDDIEKEMARTQKNKATEYHLGLLKAKLAKYRAQLLEPEKKSAKGEGFDVLKSGDARVCMIGFPSVGKSTLLSKTTKTESIVGAYEFTTLTAIPGVLEYEGARIQLLDLPGIVQDAAKGRGRGRQVVSVAKTADLILLMIDATKSAEQKRLLEIELEAVGIRLNTRPPDVVFKQKQAGGITLNCTVKLTKTDERTIRSILQTYKIHNCDVMIREDITTDEFIDVLLGTRKYIPSLTVINKIDGVSMETLDSMAREGDGRTIMISCEIDLGIDWLLEAIWKELGLVKVYTKRRGEQPDLNDPICLRQGATIETVCHGIHRSLASHFKYALVWGKSSKFNPQPQKVGLNHLVQDEDVVSIFTK",binds
5,"Metal ion binding (protein, UniProt J9VPR8 1-1441) MPTSPALSPKSNPSSSSLPPTDSMPTVYSPPSSHHFPPPRHSPLSQTFSSDRQSHSRRVSLATPDISGARPSSCMSSRVNDQVQKSKGLGLQDRLRKEVDGVVKRRSGGVLGRGYILKTDHFPTGRAMDLDLNIQGAPNFRAPDEESLNVFGVAQPTSTGLKSILTLLGCQPAFLRKPNRRGSAAANTPPLSLGERRLSRTESPIRSTNLERFNSVDEREPQGKAIWFSTREETLVYCNGRPYVLRDASTPYQTLALSDRASNLEDIERRLKLDILDEARKYGGMILTHDEITGGTIIPTWVSVDEESIQTPKEVWDDMKRQGWRVDYWRIPIAPDTPIEHNYLDAYVSVLKNADPQTTALVFNCGMGVVRTTFAMCAAMLVRRKQLLLMGLEDPFASVTSSGFSTPSSMMPQAAQFKTQAMLQQALNKSLLKVTRILNRNLPSKHPSTAIDLLTTQPTLLDQLCRAHMGSYQIVLSLLSSLDQGKPMKQLVDAVIDSCDAVINLRENVMEERIKYSVAAMEDKKRQSHLEKALRSLEQYFDLIVFAAYVDEEDAGTTGVSFSTFLKSRPEIWNQIKVLRRSGGNRLFAFAPVNDLSIISRCSEMDDRLDIHREVDLQGGKVLGDEWAEHVVTNRNGIMLRANTLLKSDLWLTESASSNEGVRGAIGFRQIKGSTIYATGQPTQDAISTILSTVHERWPNIESVIWVCLREEPLVMINGSPYCLRRDSIALRNMRDYSGVSSSRLEMLEQRLKSDVITEIEQFQGRVLLHTETADGQVMPVWEIADKQDVASLREVMDDAAATSKDVYLNFVRIPVTSESSPDFHDITELLNLCMRSNLSSSAIILNDQLGRGRSSTTAVIVFLIQRWLKEGRNQKTQNPRTPSRSRPPMLRKSTTASGSARTSWQIINSCLRVIRNGLDVKQVVDEAIDATATQFNVRKAIEDLYVEAQEATEPDRKRKLTELGLHHLKRYYHLLLFAAYLDDRAPEEEDPYSFESFVKHRPVFKTLEKELEAGGLESLAPIEKMEPADGMALPDEVTQVVANRSGAILSAQTILKSDFFSGLQKQSLPERVEGAANYRRLPLICEPHHEEDSHVSPHYVYGTGMPSCEGLRNALKKMDAGPDGSRRVVWTSLREEPVLYINSRPHVLRLVDKPLTNVETTGVTAAVVERMEVAMKQDVLKELRQSEGRLLLHDEVETKPGCYEIIPIWETCQESDILTPRELYESVISEGYKVDYMRVAITDEQAPLPVTFQVVVDRVAEGLKQGTDFVFNCQMGRGRTTTGMTVASLIATIASNDSPFDGGFLSDEEEDEEEAVAEATQYLNGEYKTILQLVTVMSHGKEAKRITDRAINLMEGVQNLRKAVYDFKLQVDAAEPGSAKHKTQTTRAINYLYRYGALVVLANFLLEMKEEGIPLEKTDFPAWLDKHREIRTALSRSTLE",binds
6,"Metallothionein (protein, UniProt J9VVZ2 1-86) MTCSGNPSNCDFCGNTQVDCAMSEVHGCTTQPSNCSVCEGKGCVALKCTGNTDTCPSCKDSFSSCRKAQFSDAEGIEPARRPAPAA",binds
7,"Pollen-specific leucine-rich repeat extensin-like protein 1 (protein, UniProt J9VS67 1-177) MSEKKETQHQEEQQEQKKEPQQEQQEEQPEQEQQEEEQPEQEQQEQEQPEQEQEQPQQEQQQQQPQREQPQPQQELQQQRRSQDSHEPTFNMPPAPGPRTISKNPPRSETARDRALGPLRSHRVPLPNELSELTPEEQPGGSHKDDKHSLSINISLDLLVEVHLTARVKGDITIGLL",binds
8,"Cytoplasmic protein (CNAG_06905) (protein, UniProt J9VL36 1-287) MPEQTTISHCCVTGHIHSGNPLGSISIQHGLRTYVSLPSSAHKGGAEGQVGQKQDTIILISDIFGIDLVNSKLIADEWAGQGYKVLLPDFFEGDPIPESLLQSIVPNVRYQAEATALTKAADTAKSAAALGPWLVKHREAVTRPLVEKYVQSVRSDPSTGKIAVVGYCYGARYALLLAQPQSGAKPSVDVVVANHPSFLVLDDVKDINTTPCIILKGDKDDIMSEDDLNKVEQVMKQNLGEKLVVRRFPGAVHGFTIRGDMEDGQEKAQKEQANKDSFDFVAKYFKS",binds
